Literature values, collected in patent US20050025804A1, “Reduction of adverse inflammation” (priority 2003, published 2005).
Some entries share one result that the patent states for a list of compounds. For at least one compound, name, drawing or mass did not settle the structure.

Tested on: target cells challenged with exogenously added synthetic peroxynitrite
Conditions: protection against peroxynitrite-mediated injury

5,10,15,20-tetrakis(4-sulfonatophenyl)porphyrinato iron(III) [FeTPPS]
EC50 values, fold below the final concentration of peroxynitrite added: 30-50 fold

CC(=O)[O-].Cc1c(-c2c3nc(c(-c4c(C)c(S(=O)(=O)[O-])c(C)c(S(=O)(=O)[O-])c4C)c4ccc([n-]4)c(-c4c(C)c(S(=O)(=O)[O-])c(C)c(S(=O)(=O)[O-])c4C)c4nc(c(-c5c(C)c(S(=O)(=O)[O-])c(C)c(S(=O)(=O)[O-])c5C)c5ccc2[n-]5)C=C4)C=C3)c(C)c(S(=O)(=O)[O-])c(C)c1S(=O)(=O)[O-].[Fe+3].[Na+].[Na+].[Na+].[Na+].[Na+].[Na+].[Na+].[Na+] [Fe(III)TMPS, acetato-5,10,15,20-tetrakis(3,5-disulfonatomesityl) porphyrin iron (III) octasodium salt]
EC50 values, fold below the final concentration of peroxynitrite added: 30-50 fold
